From article PMC5996148 come the findings set out here.

This is one part of the list.

What all share (assay): protein microarray (ProtoArray v5.0), streptavidin-Alexa Fluor 647
Common to all, as to conditions: 3'-biotin; 20 mM Tris (pH 7.5), 5 mM MgCl2, 100 mM KCl, 0.1% Tween-20, A/T-rich and random oligonucleotide blockers; temperature not stated; high values mean tight binding

Assay [1] concerns Aldo-keto reductase family 1 member C2 (human).
Assay [2] relates to Alpha-1,3-mannosyl-glycoprotein 4-beta-N-acetylglucosaminyltransferase B (human).
In assay [3] the test system is Alpha-1-acid glycoprotein 1 (human).
Assay [4] has as its system Alpha-2-macroglobulin-like protein 1 (human).
Assay [5] has as its system Alpha-S1-casein (human).
Assay [6] deals with Alpha-catulin (human).
The subject of assay [7] is Amino-terminal enhancer of split (human).
The test system of assay [8] is Anaphase-promoting complex subunit 11 (human).
In assay [9] the test system is Angiopoietin-1 receptor (human).
Assay [10] concerns Annexin A4 (human).

For the sequence “GGGAGGCTGAGGCAGG [G4-1 biotinylated (PQS2)]”, the binding signal in assay [1] was -0.338 z-score; in [2], -0.325 z-score; in assay [3], -0.333 z-score; in assay [4] it was -0.301 z-score; in assay [5], -0.335 z-score; in assay [6], -0.348 z-score. Besides, the binding signal in [7] was -0.373 z-score; in assay [8] it was -0.343 z-score; in assay [9] it was -0.238 z-score; in [10] it was -0.333 z-score.
